Source: patent US20050214772, “Thio modified aptamer synthetic methods and compositions” (Board Of Regents, The University Of Texas System, published 2005)
For part of these data: Negatives hold for the conditions tested. For part of these data: Tags and fusion partners may be left off the protein sequences shown. For part of these data: A weaker result is weaker than the reference pair of the same experiment. For part of these data: Where cells or extracts were used, other partners may take part. For part of these data: The exact form of at least one protein or probe is not confirmed.

Chains of the proteins cited; added tags and fusions are not shown. A line that says so, or that is headed by a name, gives the form on record, which may keep a tag or linker. Residues count along the entry.
UniProt P17676, 266-345: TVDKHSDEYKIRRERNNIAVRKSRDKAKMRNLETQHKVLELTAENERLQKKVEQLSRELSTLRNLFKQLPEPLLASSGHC
NF-kB p65 (RelA) homodimer, one chain, as listed by the source: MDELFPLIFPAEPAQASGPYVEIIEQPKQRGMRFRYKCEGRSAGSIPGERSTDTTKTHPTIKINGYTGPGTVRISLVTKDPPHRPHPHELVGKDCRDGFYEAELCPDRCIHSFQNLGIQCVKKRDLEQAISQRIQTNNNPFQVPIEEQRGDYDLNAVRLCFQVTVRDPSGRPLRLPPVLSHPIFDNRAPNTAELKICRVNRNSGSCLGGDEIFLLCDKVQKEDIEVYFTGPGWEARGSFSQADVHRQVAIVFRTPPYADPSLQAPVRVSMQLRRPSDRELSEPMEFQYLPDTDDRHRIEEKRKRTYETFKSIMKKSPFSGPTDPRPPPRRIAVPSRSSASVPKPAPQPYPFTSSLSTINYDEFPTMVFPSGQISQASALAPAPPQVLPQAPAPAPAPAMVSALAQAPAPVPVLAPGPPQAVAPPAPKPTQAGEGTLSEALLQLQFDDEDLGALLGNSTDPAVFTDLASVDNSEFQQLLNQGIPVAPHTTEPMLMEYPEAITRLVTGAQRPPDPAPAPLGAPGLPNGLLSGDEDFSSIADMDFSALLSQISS

Columns and labels:
[1] = test system: NF-kB p65 (RelA) homodimer; test: EMSA; details: purified recombinant protein
[2] = target: T1, NF-kB p50-containing dimer in 70Z/3 nuclear extract (UniProt P25799); test: EMSA; details: unmodified phosphodiester ODN, no NF-kB-specific binding in extracts; protein in an extract
T1 sequence (looked up, limits assumed): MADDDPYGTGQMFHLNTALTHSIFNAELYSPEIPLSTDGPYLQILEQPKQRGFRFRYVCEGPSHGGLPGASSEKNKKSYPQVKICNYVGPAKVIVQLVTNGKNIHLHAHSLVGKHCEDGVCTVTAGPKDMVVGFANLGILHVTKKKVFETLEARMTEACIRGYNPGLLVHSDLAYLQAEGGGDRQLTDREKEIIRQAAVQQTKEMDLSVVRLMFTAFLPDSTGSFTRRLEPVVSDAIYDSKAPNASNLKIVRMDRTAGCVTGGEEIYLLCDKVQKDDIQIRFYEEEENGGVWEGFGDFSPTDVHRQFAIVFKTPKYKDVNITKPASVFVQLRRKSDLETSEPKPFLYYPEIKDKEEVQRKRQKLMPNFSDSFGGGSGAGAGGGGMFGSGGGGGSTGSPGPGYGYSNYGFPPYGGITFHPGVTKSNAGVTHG

NF-kB p50 homodimer = target: T2, NF-kB p50 homodimer (UniProt P19838); test: EMSA; details: purified recombinant protein
T2 sequence (looked up, limits assumed): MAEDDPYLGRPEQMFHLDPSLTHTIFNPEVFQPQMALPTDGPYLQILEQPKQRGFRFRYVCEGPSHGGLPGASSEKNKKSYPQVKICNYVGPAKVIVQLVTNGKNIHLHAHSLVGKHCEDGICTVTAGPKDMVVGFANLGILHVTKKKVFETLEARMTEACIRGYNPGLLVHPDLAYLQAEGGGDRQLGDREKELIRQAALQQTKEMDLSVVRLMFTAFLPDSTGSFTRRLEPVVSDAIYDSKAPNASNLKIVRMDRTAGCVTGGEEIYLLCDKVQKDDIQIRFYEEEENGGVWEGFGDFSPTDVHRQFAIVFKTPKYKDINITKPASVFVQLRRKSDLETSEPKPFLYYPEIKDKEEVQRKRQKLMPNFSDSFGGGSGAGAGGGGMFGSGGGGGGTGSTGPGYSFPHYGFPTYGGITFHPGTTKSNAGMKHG

[3] = test system: NF-kB p65 (RelA) homodimer; test: FP; details: monothiophosphate at all dA outside primers; specificity control, no binding up to 4 uM; purified recombinant protein
[4] = target: NF-IL6 (C/EBPbeta) tryptic core domain bZIP (TCD) (UniProt P17676); test: FP; details: monothiophosphate at all dA outside primers, purified recombinant protein, protein details: untagged nonfusion, E. coli
[5] = single-copy site behaves similarly to CK-1
[6] = direct titration of labeled aptamer, monomer concentration at 50% saturation

CCAGGAGATTCCAC (double strand) [Dithioate duplex aptamer 6]
binding result ([1]; phosphorodithioate 3' of T2 and T12 of the complementary strand, variant of CK-14 phosphodiester duplex): binds

CCAGGAGATTCCAC (double strand) [CK-14 phosphodiester duplex]
binding result [2]: no binding | binding result [1, 5]: binds | binding result (NF-kB p50 homodimer; [5]): no binding

CCAGGAGATTCCAC (double strand) [Dithioate duplex aptamer 9]
binding result ([1]; phosphorodithioate 3' of T9 and T10 of the top strand, T2 and T12 of the complementary strand, variant of CK-14 phosphodiester duplex): binds

CCAGGAGATTCCAC (double strand) [Dithioate duplex aptamer 10]
binding result ([1]; phosphorodithioate 3' of T9 and T10 of the top strand, T7 and T9 of the complementary strand, variant of CK-14 phosphodiester duplex): binds

CCAGGAGATTCCAC (double strand) [Dithioate duplex aptamer 8]
binding result ([1]; phosphorodithioate 3' of T2, T7, T9 and T12 of the complementary strand, variant of CK-14 phosphodiester duplex): binds

CCAGGAGATTCCAC (double strand) [CK-14 fully monothiolated duplex]
binding result ([1]; PS all linkages, full monothiolation loses specificity, variant of CK-14 phosphodiester duplex): binds

GGGCCCGCTGTACATGCACACG (double strand)
binding result [3]: no binding | Kd [4, 6]: 5 nM | Kd [4]: < 2 nM

CCAGGAGATTCCACCCAGGAGATTCCACCCAGGAGATTCCAC (double strand) [CK-1 42-mer phosphodiester duplex]
binding result [1]: binds | binding result (NF-kB p50 homodimer): no binding

CCAGGAGATTCCACCCAGGAGATTCCACCCAGGAGATTCCAC (double strand) [CK-1 phosphorothioate duplex]
binding result ([1]; PS all linkages, variant of CK-1 42-mer phosphodiester duplex): binds

CCAGGAGATTCCAC (double strand) [Dithioate duplex aptamer 7]
binding result ([1]; phosphorodithioate 3' of T7 and T9 of the complementary strand, variant of CK-14 phosphodiester duplex): binds

CCAGGAGATTCCAC (double strand) [Dithioate duplex aptamer 11 (XBY-6)]
binding result ([1]; phosphorodithioate 3' of T9 and T10 of the top strand, T2, T7, T9 and T12 of the complementary strand, variant of CK-14 phosphodiester duplex): binds | binding result (NF-kB p50 homodimer; phosphorodithioate 3' of T9 and T10 of the top strand, T2, T7, T9 and T12 of the complementary strand, in vitro, recombinant p50 homodimer, variant of CK-14 phosphodiester duplex): binds more weakly

AGTTGAGGGGACTTTCCCAGGC (double strand) [IgkB promoter element 22-mer]
binding result ([1]; label: 32P): binds

GGCCGACCGCACAGCACAACCC (double strand) [Thiophosphate clone 7 (66-mer, variable region given)]
Kd [4]: < 2 nM

CCCGTTGTTGTCCCACTCCACG (double strand)
Kd [4, 6]: 3 nM | Kd [4]: < 2 nM
